{"sequences": {"note": "The chains behind the UniProt entries cited, without tags or fusion partners. Residues count along the entry.", "UniProt Q96EB6, 2-747 limits assumed": "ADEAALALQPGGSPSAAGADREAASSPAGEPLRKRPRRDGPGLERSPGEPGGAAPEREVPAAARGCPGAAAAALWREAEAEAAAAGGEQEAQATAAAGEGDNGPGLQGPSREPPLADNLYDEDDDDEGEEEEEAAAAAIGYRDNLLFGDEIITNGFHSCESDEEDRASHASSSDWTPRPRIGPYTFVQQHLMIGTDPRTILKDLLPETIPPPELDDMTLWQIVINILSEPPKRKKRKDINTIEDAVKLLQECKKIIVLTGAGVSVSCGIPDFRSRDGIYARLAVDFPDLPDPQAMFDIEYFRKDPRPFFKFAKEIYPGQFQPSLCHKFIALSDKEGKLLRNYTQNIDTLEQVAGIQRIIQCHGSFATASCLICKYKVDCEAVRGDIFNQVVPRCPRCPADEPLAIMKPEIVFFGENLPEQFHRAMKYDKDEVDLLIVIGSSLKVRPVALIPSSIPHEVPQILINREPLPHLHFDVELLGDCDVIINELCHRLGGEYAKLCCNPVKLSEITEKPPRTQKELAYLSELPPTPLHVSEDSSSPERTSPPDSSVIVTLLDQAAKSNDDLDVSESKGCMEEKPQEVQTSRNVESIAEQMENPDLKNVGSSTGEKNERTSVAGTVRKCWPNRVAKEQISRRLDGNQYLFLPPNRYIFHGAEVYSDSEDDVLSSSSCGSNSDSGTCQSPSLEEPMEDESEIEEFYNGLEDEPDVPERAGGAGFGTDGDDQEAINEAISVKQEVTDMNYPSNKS"}, "source": "paper PMC6925144", "about": "“A prospective compound screening contest identified broader inhibitors for Sirtuin 1” (Scientific Reports, 2019)", "note": "In all, about 3,200 compounds were measured (“TSA(with NAD+) / Primary screening (TSA) / delta Tm (K)”: median about -0.04, highest 2% from about 0.37 on). The list shows a part of the results.", "data": [{"molecular_target": "NAD-dependent deacetylase Sirtuin 1 (human, UniProt Q96EB6)", "experiment": "primary screen, delta tm", "design": "single well (n = 1, as 'the same TSA')", "settings": "10 µM", "units": {"TSA(with NAD+) / Primary screening (TSA) / delta Tm (K)": "K"}, "values": [{"smiles": "COc1ccc(-c2cc(NC(=O)Cc3n[nH]c(=O)c4ccccc34)ccc2OC(F)F)cc1", "TSA(with NAD+) / Primary screening (TSA) / delta Tm (K)": 0.07}, {"smiles": "O=C(NCC(=O)N1CC=C(c2ccccc2)CC1)NCc1ccccc1", "TSA(with NAD+) / Primary screening (TSA) / delta Tm (K)": 0.02}, {"smiles": "O=S1CCN(c2ncnc3ccsc23)CC1", "TSA(with NAD+) / Primary screening (TSA) / delta Tm (K)": -0.04}, {"smiles": "O=c1[nH]c(CNc2ccc3c(c2)OCO3)nc2ccsc12", "TSA(with NAD+) / Primary screening (TSA) / delta Tm (K)": -0.12}, {"smiles": "CN(CCCNC(=O)N[C@@H]1c2ccccc2C[C@@H]1O)S(C)(=O)=O", "TSA(with NAD+) / Primary screening (TSA) / delta Tm (K)": -0.05}, {"smiles": "Cn1c(SCc2nc3ccccc3s2)nc2ccsc2c1=O", "TSA(with NAD+) / Primary screening (TSA) / delta Tm (K)": -0.11}, {"smiles": "O=C(CCc1c[nH]c2ccccc12)Nc1cccc(S(=O)(=O)NCc2ccco2)c1", "TSA(with NAD+) / Primary screening (TSA) / delta Tm (K)": 0.06}, {"smiles": "c1ccc(-n2ncc3c(N4CCCO4)ncnc32)cc1", "TSA(with NAD+) / Primary screening (TSA) / delta Tm (K)": -0.24}, {"smiles": "C=CCN(c1ccc(Cl)cc1)S(=O)(=O)c1cccc(C(=O)Nc2ccc(C(N)=O)cc2)c1", "TSA(with NAD+) / Primary screening (TSA) / delta Tm (K)": -0.03}, {"smiles": "COc1cc2nc(S)n(C)c(=O)c2cc1OC", "TSA(with NAD+) / Primary screening (TSA) / delta Tm (K)": 0.09}, {"smiles": "CCc1nn2c(=O)cc(CNc3ccc(F)cc3Cl)nc2s1", "TSA(with NAD+) / Primary screening (TSA) / delta Tm (K)": 0.16}, {"smiles": "Cc1cc(C)n2nc(C(=O)Nc3ccccc3Cc3ccccc3)nc2n1", "TSA(with NAD+) / Primary screening (TSA) / delta Tm (K)": -0.11}, {"smiles": "CCCCn1c(N)c(N(CC(C)C)C(=O)c2cccc(S(=O)(=O)N(C)c3ccc(C)cc3)c2)c(=O)[nH]c1=O", "TSA(with NAD+) / Primary screening (TSA) / delta Tm (K)": -0.05}, {"smiles": "CC(Nc1ncnc2c(F)cccc12)c1ccc(NC(=O)NC2CC2)cc1", "note": "(stereo not shown)", "TSA(with NAD+) / Primary screening (TSA) / delta Tm (K)": -0.08}, {"smiles": "COc1cc(CN(C)C(=O)c2ccc3c(c2)NC(=O)CS3)ccc1OCc1ccccc1", "TSA(with NAD+) / Primary screening (TSA) / delta Tm (K)": -0.18}, {"smiles": "CCCCCCCC(=O)NCC(=O)O", "TSA(with NAD+) / Primary screening (TSA) / delta Tm (K)": -0.18}, {"smiles": "Cc1nc(COc2ccc(C(=O)Nc3ccc(S(=O)(=O)Nc4cccc(F)c4)cc3)cc2)cs1", "TSA(with NAD+) / Primary screening (TSA) / delta Tm (K)": -0.14}, {"smiles": "O=C(COC(=O)c1cccc(S(=O)(=O)N2CCc3ccccc32)c1)NC12CC3CC(CC(C3)C1)C2", "TSA(with NAD+) / Primary screening (TSA) / delta Tm (K)": 0.08}, {"smiles": "O=C(Nc1ccc2c3c(cccc13)CC2)N1CCC(n2cncn2)CC1", "TSA(with NAD+) / Primary screening (TSA) / delta Tm (K)": -0.08}, {"smiles": "CC(C(N)=O)N(C)Cc1ccccc1OC(F)(F)F", "note": "(stereo not shown)", "TSA(with NAD+) / Primary screening (TSA) / delta Tm (K)": -0.08}, {"smiles": "CC(C)C(=O)N1CCC(C(=O)N2CCc3cc(S(=O)(=O)N(C)C)ccc32)CC1", "TSA(with NAD+) / Primary screening (TSA) / delta Tm (K)": 0.01}, {"smiles": "NC(=O)N1CCCC(C(=O)NCc2nncn2-c2ccccc2)C1", "note": "(stereo not shown)", "TSA(with NAD+) / Primary screening (TSA) / delta Tm (K)": 0.01}, {"smiles": "O=c1[nH]c2ccccc2c2nc(-c3cc(-c4ccccc4)n[nH]3)nn12", "TSA(with NAD+) / Primary screening (TSA) / delta Tm (K)": -0.01}, {"smiles": "CC(C)N(CC(N)=O)CC(=O)Nc1ccc2oc3ccccc3c2c1", "TSA(with NAD+) / Primary screening (TSA) / delta Tm (K)": -0.32}, {"smiles": "COC(C)(C)CN", "TSA(with NAD+) / Primary screening (TSA) / delta Tm (K)": -0.11}]}]}
